Source: publication PMC4931344
Results are given in words; binding and its absence hold for the method and conditions named. Binding seen in cells or lysates may run through a third protein. Some results given as binding are weak or reduced against the parent protein; the word gives no strength. For some of these results: Sequences can lack the tags named with a protein. Values belong to the binder of their own block, whether it stands above or below them.

Experiments:
[1] = target: HA–FNIP2 (UniProt Q9P278); assay: co-IP; sequential IP from co-transfected HEK293: anti-cMyc agarose, elution with cMyc peptides, dialysis, then anti-HA agarose; immunoblot
[2] = target: T1, FLAG–FLCN (amino-terminally FLAG-tagged folliculin) (UniProt Q8NFG4); assay: co-IP; FLAG–FLCN (empty vector control) immunoprecipitated from HEK293, immunoblot
T1 sequence: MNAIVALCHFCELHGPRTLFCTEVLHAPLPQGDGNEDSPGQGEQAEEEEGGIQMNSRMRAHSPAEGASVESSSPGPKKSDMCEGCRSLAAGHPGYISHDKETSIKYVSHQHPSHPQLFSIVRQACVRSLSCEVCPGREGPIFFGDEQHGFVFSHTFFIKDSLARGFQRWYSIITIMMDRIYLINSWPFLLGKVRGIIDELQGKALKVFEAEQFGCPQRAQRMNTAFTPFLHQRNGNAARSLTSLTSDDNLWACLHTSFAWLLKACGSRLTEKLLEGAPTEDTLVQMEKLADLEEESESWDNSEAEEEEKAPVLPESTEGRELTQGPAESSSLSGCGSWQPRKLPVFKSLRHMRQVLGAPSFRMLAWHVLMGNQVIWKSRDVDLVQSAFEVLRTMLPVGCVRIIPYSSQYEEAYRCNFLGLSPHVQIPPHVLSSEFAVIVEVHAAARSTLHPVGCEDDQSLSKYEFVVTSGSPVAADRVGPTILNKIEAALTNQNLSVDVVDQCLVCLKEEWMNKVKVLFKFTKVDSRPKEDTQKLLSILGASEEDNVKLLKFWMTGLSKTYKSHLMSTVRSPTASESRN

[3] = target: T2, endogenous FLCN (folliculin) (human (endogenous in HEK293)) (UniProt Q8NFG4); assay: co-IP; endogenous FLCN isolated from HEK293 lysates with anti-FLCN (IgG control), immunoblot
T2 sequence: T1 sequence

[4] = target: T3, endogenous FNIP1 (folliculin-interacting protein 1) (human (endogenous in HEK293, cancer cell lines and renal tissue)) (UniProt Q8TF40); assay: co-IP; endogenous FNIP1 and FNIP2 isolated from HEK293 lysates with anti-FNIP1 or anti-FNIP2 (IgG control), immunoblot
T3 sequence: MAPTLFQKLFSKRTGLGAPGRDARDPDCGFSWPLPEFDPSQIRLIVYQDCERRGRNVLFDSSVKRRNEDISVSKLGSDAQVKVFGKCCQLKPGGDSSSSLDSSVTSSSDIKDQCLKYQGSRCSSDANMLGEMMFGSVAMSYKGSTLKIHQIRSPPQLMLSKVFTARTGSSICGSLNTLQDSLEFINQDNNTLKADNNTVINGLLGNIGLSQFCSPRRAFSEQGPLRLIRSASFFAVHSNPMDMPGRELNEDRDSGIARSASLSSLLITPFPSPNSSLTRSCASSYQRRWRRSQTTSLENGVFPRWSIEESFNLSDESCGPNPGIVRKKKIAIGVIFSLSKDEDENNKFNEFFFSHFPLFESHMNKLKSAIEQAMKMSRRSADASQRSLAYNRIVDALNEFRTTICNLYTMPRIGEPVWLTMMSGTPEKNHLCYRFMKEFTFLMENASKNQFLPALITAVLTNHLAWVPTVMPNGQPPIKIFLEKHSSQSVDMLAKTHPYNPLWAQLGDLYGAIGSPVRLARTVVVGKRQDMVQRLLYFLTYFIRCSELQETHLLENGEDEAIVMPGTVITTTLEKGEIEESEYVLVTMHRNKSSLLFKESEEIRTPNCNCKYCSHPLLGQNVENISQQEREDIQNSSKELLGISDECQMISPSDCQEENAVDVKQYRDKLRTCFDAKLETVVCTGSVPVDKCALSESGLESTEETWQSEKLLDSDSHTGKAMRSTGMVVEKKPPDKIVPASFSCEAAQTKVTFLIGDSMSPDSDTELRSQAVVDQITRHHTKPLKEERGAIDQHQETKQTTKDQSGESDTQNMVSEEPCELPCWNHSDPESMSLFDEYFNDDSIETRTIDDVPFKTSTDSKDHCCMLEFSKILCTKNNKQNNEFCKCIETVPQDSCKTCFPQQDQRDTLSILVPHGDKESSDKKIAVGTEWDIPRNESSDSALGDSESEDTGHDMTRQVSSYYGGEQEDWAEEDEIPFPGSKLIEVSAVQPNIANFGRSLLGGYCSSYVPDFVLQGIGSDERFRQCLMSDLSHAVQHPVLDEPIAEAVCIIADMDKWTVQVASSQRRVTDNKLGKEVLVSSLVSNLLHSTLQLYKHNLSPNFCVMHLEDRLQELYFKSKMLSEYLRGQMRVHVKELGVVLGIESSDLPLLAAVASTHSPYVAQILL

[5] = target: T4, endogenous FNIP2 (folliculin-interacting protein 2) (human (endogenous in HEK293, cancer cell lines and renal tissue)) (UniProt Q9P278); assay: as above
T4 sequence: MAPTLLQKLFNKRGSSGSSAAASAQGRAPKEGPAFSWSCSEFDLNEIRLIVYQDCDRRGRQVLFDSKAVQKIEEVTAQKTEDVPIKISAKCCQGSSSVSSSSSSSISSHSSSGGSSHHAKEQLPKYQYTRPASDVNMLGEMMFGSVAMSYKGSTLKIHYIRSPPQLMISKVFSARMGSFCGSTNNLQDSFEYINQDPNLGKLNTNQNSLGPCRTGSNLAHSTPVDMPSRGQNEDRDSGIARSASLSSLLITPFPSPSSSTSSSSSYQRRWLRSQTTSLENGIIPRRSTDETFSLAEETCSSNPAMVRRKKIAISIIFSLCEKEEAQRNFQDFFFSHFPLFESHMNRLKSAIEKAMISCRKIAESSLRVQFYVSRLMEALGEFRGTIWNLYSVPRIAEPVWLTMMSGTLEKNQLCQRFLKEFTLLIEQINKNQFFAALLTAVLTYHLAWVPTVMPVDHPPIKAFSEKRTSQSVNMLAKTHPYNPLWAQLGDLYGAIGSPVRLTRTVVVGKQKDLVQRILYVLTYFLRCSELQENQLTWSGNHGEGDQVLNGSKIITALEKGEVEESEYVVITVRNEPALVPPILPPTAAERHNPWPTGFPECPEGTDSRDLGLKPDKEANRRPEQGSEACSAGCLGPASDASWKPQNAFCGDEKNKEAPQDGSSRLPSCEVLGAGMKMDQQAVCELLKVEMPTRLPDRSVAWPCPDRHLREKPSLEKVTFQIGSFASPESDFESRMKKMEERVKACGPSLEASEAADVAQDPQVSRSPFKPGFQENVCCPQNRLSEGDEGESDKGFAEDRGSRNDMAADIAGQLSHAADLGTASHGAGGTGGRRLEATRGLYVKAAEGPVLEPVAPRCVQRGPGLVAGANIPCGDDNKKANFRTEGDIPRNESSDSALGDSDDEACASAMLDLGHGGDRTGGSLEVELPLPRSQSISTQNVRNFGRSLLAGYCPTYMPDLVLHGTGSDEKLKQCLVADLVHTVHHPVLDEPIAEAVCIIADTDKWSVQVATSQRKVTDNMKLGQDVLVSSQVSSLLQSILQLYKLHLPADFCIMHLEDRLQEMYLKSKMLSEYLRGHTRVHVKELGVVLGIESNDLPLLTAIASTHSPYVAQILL

B1: HA–FNIP2 (protein, UniProt Q9P278 1-1114)
chain: T4 sequence
- binding [1]: binds

B4: Cdc37^p50, endogenous (protein, UniProt Q16543 1-378)
chain: MVDYSVWDHIEVSDDEDETHPNIDTASLFRWRHQARVERMEQFQKEKEELDRGCRECKRKVAECQRKLKELEVAEGGKAELERLQAEAQQLRKEERSWEQKLEEMRKKEKSMPWNVDTLSKDGFSKSMVNTKPEKTEEDSEEVREQKHKTFVEKYEKQIKHFGMLRRWDDSQKYLSDNVHLVCEETANYLVIWCIDLEVEEKCALMEQVAHQTIVMQFILELAKSLKVDPRACFRQFFTKIKTADRQYMEGFNDELEAFKERVRGRAKLRIEKAMKEYEEEERKKRLGPGGLDPVEVYESLPEELQKCFDVKDVQMLQDAISKMDPTDAKYHMQRCIDSGLWVPNSKASEAKEGEEAGPGDPLLEAVPKTGDEKDVSV
- binding [2]: binds
- binding [4]: binds
- binding [5]: binds
- binding [3]: binds

B5: CCT2, endogenous (protein, UniProt P78371 1-535)
chain: MASLSLAPVNIFKAGADEERAETARLTSFIGAIAIGDLVKSTLGPKGMDKILLSSGRDASLMVTNDGATILKNIGVDNPAAKVLVDMSRVQDDEVGDGTTSVTVLAAELLREAESLIAKKIHPQTIIAGWREATKAAREALLSSAVDHGSDEVKFRQDLMNIAGTTLSSKLLTHHKDHFTKLAVEAVLRLKGSGNLEAIHIIKKLGGSLADSYLDEGFLLDKKIGVNQPKRIENAKILIANTGMDTDKIKIFGSRVRVDSTAKVAEIEHAEKEKMKEKVERILKHGINCFINRQLIYNYPEQLFGAAGVMAIEHADFAGVERLALVTGGEIASTFDHPELVKLGSCKLIEEVMIGEDKLIHFSGVALGEACTIVLRGATQQILDEAERSLHDALCVLAQTVKDSRTVYGGGCSEMLMAHAVTQLANRTPGKEAVAMESYAKALRMLPTIIADNAGYDSADLVAQLRAAHSEGNTTAGLDMREGTIGDMAILGITESFQVKRQVLLSAAEAAEVILRVDNIIKAAPRKRVPDHHPC
- binding [2]: binds
- binding [3]: binds

Other lines, results leading:

- binding [2]: binds
- binding [3]: binds
B2: PP5, endogenous (protein, UniProt P53041 1-499)
chain: MAMAEGERTECAEPPRDEPPADGALKRAEELKTQANDYFKAKDYENAIKFYSQAIELNPSNAIYYGNRSLAYLRTECYGYALGDATRAIELDKKYIKGYYRRAASNMALGKFRAALRDYETVVKVKPHDKDAKMKYQECNKIVKQKAFERAIAGDEHKRSVVDSLDIESMTIEDEYSGPKLEDGKVTISFMKELMQWYKDQKKLHRKCAYQILVQVKEVLSKLSTLVETTLKETEKITVCGDTHGQFYDLLNIFELNGLPSETNPYIFNGDFVDRGSFSVEVILTLFGFKLLYPDHFHLLRGNHETDNMNQIYGFEGEVKAKYTAQMYELFSEVFEWLPLAQCINGKVLIMHGGLFSEDGVTLDDIRKIERNRQPPDSGPMCDLLWSDPQPQNGRSISKRGVSCQFGPDVTKAFLEENNLDYIIRSHEVKAEGYEVAHGGRCVTVFSAPNYCDQMGNKASYIHLQGSDLRPQFHQFTAVPHPNVKPMAYANTLLQLGMM

- binding [2]: binds
- binding [4]: binds
- binding [5]: binds
- binding [3]: binds
B3: p23, endogenous (protein, UniProt Q15185 1-160)
chain: MQPASAKWYDRRDYVFIEFCVEDSKDVNVNFEKSKLTFSCLGGSDNFKHLNEIDLFHCIDPNDSKHKRTDRSILCCLRKGESGQSWPRLTKERAKLNWLSVDFNNWKDWEDDSDEDMSNFDRFSEMMNNMGGDEDVDLPEVDGADDDSQDSDDEKMPDLE
